# Data from the supplement of paper PMC6411743.
# ± gives the standard deviation of the averaged measurements. Some of the results follow.
# Experiments:
# Test in all cases: NP40-soluble protein abundance relative to vehicle (solubility fold change) (ratio); higher = more soluble protein in presence of GTP
# CDS2 = target: T1, CDS2 (UniProt O95674)
# T1 sequence (whole entry): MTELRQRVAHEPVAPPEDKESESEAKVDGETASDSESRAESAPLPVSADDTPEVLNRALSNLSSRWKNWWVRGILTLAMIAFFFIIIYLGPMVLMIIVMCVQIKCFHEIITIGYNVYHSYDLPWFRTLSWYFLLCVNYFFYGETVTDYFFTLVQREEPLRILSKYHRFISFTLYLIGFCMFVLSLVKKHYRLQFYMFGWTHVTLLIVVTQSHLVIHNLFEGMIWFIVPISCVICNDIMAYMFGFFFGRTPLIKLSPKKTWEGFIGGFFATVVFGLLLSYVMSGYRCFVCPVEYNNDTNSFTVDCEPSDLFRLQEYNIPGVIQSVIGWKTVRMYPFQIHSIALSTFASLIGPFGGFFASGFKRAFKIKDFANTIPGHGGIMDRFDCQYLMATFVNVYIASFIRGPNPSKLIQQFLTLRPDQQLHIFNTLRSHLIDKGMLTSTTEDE
# Procedure, shortened: (§1)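 In three independent experiments, Jurkat crude lysate made by Dounce homogenisation was treated for 10 min at room temperature and then 3 min at 37 °C with eight concentrations ranging from 0.1 to 10 mM. It was then solubilised with 0.8% NP40 plus benzonase for 60 min at 4 °C and ultracentrifuged. The supernatant was TMT-labelled for LC-MS/MS, and each value is the fold change against the detergent-processed vehicle for the same replicate, using vsn-normalised intensities.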
# CSDE1 = target: T2, CSDE1 (UniProt O75534)
# T2 sequence (whole entry): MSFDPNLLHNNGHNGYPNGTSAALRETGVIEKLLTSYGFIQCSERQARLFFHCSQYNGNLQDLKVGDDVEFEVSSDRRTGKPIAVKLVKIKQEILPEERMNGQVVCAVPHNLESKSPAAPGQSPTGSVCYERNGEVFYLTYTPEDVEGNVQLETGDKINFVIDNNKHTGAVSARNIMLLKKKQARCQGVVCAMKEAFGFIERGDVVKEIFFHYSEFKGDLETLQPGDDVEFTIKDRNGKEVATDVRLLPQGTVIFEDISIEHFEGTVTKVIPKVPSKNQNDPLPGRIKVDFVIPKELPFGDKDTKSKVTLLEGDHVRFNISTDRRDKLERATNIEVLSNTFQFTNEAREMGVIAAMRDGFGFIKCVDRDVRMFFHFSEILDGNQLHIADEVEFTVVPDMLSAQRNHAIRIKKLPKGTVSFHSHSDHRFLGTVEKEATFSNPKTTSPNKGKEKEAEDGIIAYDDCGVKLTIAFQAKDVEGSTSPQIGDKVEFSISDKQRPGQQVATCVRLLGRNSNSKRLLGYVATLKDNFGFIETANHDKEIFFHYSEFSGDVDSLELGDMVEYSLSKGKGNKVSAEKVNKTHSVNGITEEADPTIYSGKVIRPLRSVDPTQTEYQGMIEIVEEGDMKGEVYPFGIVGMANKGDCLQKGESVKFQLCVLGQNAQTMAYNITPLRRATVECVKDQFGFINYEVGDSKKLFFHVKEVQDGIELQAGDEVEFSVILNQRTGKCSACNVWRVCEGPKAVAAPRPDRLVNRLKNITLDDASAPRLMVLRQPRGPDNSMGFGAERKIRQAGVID
# Procedure, shortened: as §1
# CSTB = target: T3, CSTB (UniProt P04080)
# T3 sequence (whole entry): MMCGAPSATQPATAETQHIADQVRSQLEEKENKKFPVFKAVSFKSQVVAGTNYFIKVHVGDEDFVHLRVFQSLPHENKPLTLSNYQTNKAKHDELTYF
# Procedure, shortened: as §1
# GLA = target: T4, GLA (UniProt P06280)
# T4 sequence (whole entry): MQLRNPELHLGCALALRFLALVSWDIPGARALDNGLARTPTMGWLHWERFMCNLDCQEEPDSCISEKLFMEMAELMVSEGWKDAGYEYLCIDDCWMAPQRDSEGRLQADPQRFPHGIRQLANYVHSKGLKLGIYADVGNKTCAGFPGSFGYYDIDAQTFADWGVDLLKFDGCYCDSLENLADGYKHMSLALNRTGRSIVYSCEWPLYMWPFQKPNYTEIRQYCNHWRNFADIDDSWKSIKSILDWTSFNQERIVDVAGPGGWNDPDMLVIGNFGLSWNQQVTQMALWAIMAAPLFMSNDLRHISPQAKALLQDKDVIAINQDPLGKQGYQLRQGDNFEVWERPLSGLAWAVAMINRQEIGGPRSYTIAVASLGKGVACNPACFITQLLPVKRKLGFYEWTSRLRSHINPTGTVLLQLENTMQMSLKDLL
# Procedure, shortened: as §1
compound,measurement,setting,value
Nc1nc2c(ncn2[C@@H]2O[C@H](COP(=O)(O)OP(=O)(O)OP(=O)(O)O)[C@@H](O)[C@H]2O)c(=O)[nH]1 [guanosine triphosphate],NP40-soluble protein abundance,CDS2; concentration: 0.1mM,1.1 ± 0.075
same,NP40-soluble protein abundance,CDS2; concentration: 0.5mM,1 ± 0.12
same,NP40-soluble protein abundance,CDS2; concentration: 1mM,0.858 ± 0.026
same,NP40-soluble protein abundance,CDS2; concentration: 2mM,0.924 ± 0.046
same,NP40-soluble protein abundance,CDS2; concentration: 4mM,0.868 ± 0.077
same,NP40-soluble protein abundance,CDS2; concentration: 6mM,0.841 ± 0.12
same,NP40-soluble protein abundance,CDS2; concentration: 8mM,0.831 ± 0.076
same,NP40-soluble protein abundance,CDS2; concentration: 10mM,0.862 ± 0.13
same,NP40-soluble protein abundance,CSDE1; concentration: 0.1mM,0.9909 ± 0.0073
same,NP40-soluble protein abundance,CSDE1; concentration: 0.5mM,1.01 ± 0.037
same,NP40-soluble protein abundance,CSDE1; concentration: 1mM,0.9433 ± 0.0032
same,NP40-soluble protein abundance,CSDE1; concentration: 2mM,0.925 ± 0.024
same,NP40-soluble protein abundance,CSDE1; concentration: 4mM,0.916 ± 0.023
same,NP40-soluble protein abundance,CSDE1; concentration: 6mM,0.909 ± 0.027
same,NP40-soluble protein abundance,CSDE1; concentration: 8mM,0.906 ± 0.021
same,NP40-soluble protein abundance,CSDE1; concentration: 10mM,0.859 ± 0.045
same,NP40-soluble protein abundance,CSTB; concentration: 0.1mM,0.962 ± 0.066
same,NP40-soluble protein abundance,CSTB; concentration: 0.5mM,0.917 ± 0.037
same,NP40-soluble protein abundance,CSTB; concentration: 1mM,1.03 ± 0.095
same,NP40-soluble protein abundance,CSTB; concentration: 2mM,0.977 ± 0.086
same,NP40-soluble protein abundance,CSTB; concentration: 4mM,0.983 ± 0.11
same,NP40-soluble protein abundance,CSTB; concentration: 6mM,0.963 ± 0.11
same,NP40-soluble protein abundance,CSTB; concentration: 8mM,1.01 ± 0.14
same,NP40-soluble protein abundance,CSTB; concentration: 10mM,0.975 ± 0.087
same,NP40-soluble protein abundance,GLA; concentration: 0.1mM,1.04 ± 0.017
same,NP40-soluble protein abundance,GLA; concentration: 0.5mM,1.04 ± 0.018

# Pulled one by one from above, two records:
compound,measurement,setting,value
Nc1nc2c(ncn2[C@@H]2O[C@H](COP(=O)(O)OP(=O)(O)OP(=O)(O)O)[C@@H](O)[C@H]2O)c(=O)[nH]1 [guanosine triphosphate],NP40-soluble protein abundance,CSTB; concentration: 8mM,1.01 ± 0.14
same,NP40-soluble protein abundance,GLA; concentration: 0.5mM,1.04 ± 0.018
